Assay results as given in the supplement of paper PMC3334620.
The full ranking holds about 33,000 sequences; the median of “E-score (-0.5 to 0.5)” is about -0.0059, and the highest 2% start at about 0.26. The list shows a part of the results.

Molecular target: T1, Cin5 (UniProt P40917)
T1 sequence: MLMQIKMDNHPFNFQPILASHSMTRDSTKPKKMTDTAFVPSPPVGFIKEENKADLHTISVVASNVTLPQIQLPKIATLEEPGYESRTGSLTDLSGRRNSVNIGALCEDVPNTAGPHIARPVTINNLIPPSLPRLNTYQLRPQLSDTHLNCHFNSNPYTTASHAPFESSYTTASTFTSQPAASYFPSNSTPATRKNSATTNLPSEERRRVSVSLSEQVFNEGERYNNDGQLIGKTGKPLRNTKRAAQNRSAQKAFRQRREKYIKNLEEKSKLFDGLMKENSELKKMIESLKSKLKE
Experiment: PBM E-score (8-mer binding enrichment) (E-score (-0.5 to 0.5)); higher = stronger / more preferred TF binding
Conditions: protein concentration: 100 nM; construct: GST-full length
Procedure, shortened: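 Each ungapped eight-base word and its reverse complement, pooled, received an E-score from the Universal PBM Analysis Suite. Underlying scans, normalised with masliner, recorded fluorescent anti-GST bound to GST-tagged yeast transcription factors. These were applied at about 100-200 nM to universal all-10-mer Agilent arrays double-stranded by primer extension.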

Sequence	PBM E-score
GATAATTA	0.218
CACTGACG	-0.238
CGCTCAAA	0.00888
CCGTTCTC	-0.0505
CGCAGCCG	-0.234
AAATAGGA	0.162
AGAGGGTA	-0.0977
AACTGCTG	-0.0415
AGTGTACG	-0.109
AGCTACCG	-0.163
ATCCAATA	0.243
CGTTAGCC	0.0733
TAAGCGGA	0.197
CCCAACCC	0.0517
CAGAACTA	0.0448
ACGCCACT	0.0178
GATTGTGA	0.0821
GACAGCTC	-0.237
GTTGAGCA	0.0818
GAAAGGAC	0.0119
CGAAGCGC	-0.0599
TACTCTCA	0.0302
CCGAGCCC	-0.273
CGCCGGTC	-0.196
ATAGTTAA	0.103

Sequence	PBM E-score
AAAATTGA	0.056
AGTTTGCC	0.146
CCCTACCA	-0.115
CTACTGTA	0.12
TGGTCTAA	-0.153
GACAGGCC	-0.0725
GCGGCAGA	-0.189
CGAAAGGC	-0.122
ATCTAACC	0.137
AGAGGACA	-0.0578
GTGTCATA	0.0816
CGAAGGCG	0.0157
AGTTCGCA	0.0133
ATCGCGAC	0.0499
AACCGCAT	0.115
CCCAACGG	-0.0607
CCTGAGAG	-0.221
AAGCCACC	-0.287
ACCCGTTC	0.155
AATTGGCT	0.193
ACTAAACT	0.1
CGTTTAAC	0.0292
CGAGCTAG	0.124
ATGACAAA	0.226
CTACGGAA	0.0346

Sequence	PBM E-score
AACTTGAC	0.171
GCGCCGAC	-0.227
CCCTGCAC	-0.14
GCATTAGA	-0.0233
ATAAATCA	0.185
AGTGGAGC	-0.0806
TATGCCAA	-0.0278
CCGGTGAA	0.0284
AGGTGGCA	-0.0179
CGGAGCTA	-0.131
AGGGAGTC	-0.234
AAGGTCGT	-0.00655
AAAGCCTC	-0.109
GGATACCA	-0.0155
GAGAGTAC	-0.134
GATACCGA	-0.112
CAGTAACG	-0.0731
TACCTCGA	-0.0145
AACACAGT	0.12
TCCCATAA	0.0854
CGTTCAAG	-0.0617
GGGCTGGA	-0.2
ACAGTGGC	-0.0208
GCAGAGGA	-0.116
CATCTACG	0.137

Given in markdown: part of the list above

| Sequence | PBM E-score |
| --- | --- |
| CGGAGCTA | -0.131 |
| AGGGAGTC | -0.234 |
| GGGCTGGA | -0.2 |

Random excerpt: 2 entries already listed.
Sequence	PBM E-score
TCCCATAA	0.0854
CATCTACG	0.137

(further entries)

Sequence	PBM E-score
AAGAGATC	-0.103
AGCCCCAC	-0.0333
AAACTCGC	0.0546
CCACTTAA	0.0597
CCGCTTCC	-0.0726
ACAGTTGC	-0.00566
ATTTACCA	0.0393
AGGTGCTC	-0.369
GGGGAGCA	-0.281
CTGCAAAG	-0.162
AACCGGAG	-0.0396
GCCGCCAC	-0.287
CGGTAATC	-0.0552
CTATCCTA	-0.111
CTCCACAC	-0.0294
ATGGTTAG	0.165
GCAAATCC	0.0128
AGCATCCA	-0.111
CAGCTAAG	-0.252
ACAACGTG	0.00786
CTGAAGTA	0.0817
GGCTAGAC	-0.232
CGGCAACG	-0.233
CTGCTTAA	0.00628
CCAGTTAG	0.116

Sequence	PBM E-score
CTGCCCAG	-0.249
CCACCGCC	0.00825
GAGACTCA	-0.0361
ATTTGGCA	0.00273
CCATTGCA	-0.0214
ACTTACTG	0.0622
CCGTAGCC	-0.239
ACCGACCG	-0.0565
AGTTCTAC	-0.141
CAATTGAC	0.0562
CTCGAACA	-0.0292
ACTCATGG	0.113
AGGGGCTG	0.0194
ATTTCTTC	0.0613
AGATGAAG	-0.21
GGCAACCA	-0.0499
GCCTGTTA	0.00827
ACAAATTC	0.183
CAATCGGC	0.00797
CAGTATTC	0.144
CCAAGCTC	0.0192
CACAATAA	0.0141
CCTGACAG	-0.0301
GCCGCACC	-0.119
GCCAAACA	-0.00747

Sequence	PBM E-score
TGTGCCAA	0.123
GCCGAAAA	0.111
CTGTACGC	-0.108
CTAGTGCA	0.104
AGTCAACT	-0.157
GCTCGGCC	-0.284
GCAAAGCA	-0.182
CTATCGAC	-0.227
AATCGGGA	0.0847
ACAGTACT	-0.0867
CTCCCGTC	0.0274
AGGGCTCA	-0.294
CCTATCTC	0.0294
CTGGAGCA	-0.0335
GACGGCTC	-0.225
TATGGCAA	0.0984
AAATACCC	0.126
AAGCTTGT	0.101
CGAGCTTA	0.0596
CCTGATCC	-0.0141
GCCGTCAA	-0.118
AGCGACAA	0.0318
AAGGTTTG	0.0882
GTTTGGCA	-0.131
CTTCTGCC	-0.064

Sequence	PBM E-score
AAGTTCGA	0.105
ATGCCTGC	-0.111
CTACGTAA	0.24
ATGGAGGC	-0.119
CATACAGA	0.0894
AGGGCGGA	-0.186
ACCAAGTG	-0.209
AGGGACTC	-0.333
CGTGTCCA	-0.181
GATTAAAC	0.115
AGAACCTG	-0.127
ATGTCGTA	0.0328
TAACGATA	0.22
ATATTTCC	0.11
CCTGTCCC	-0.315
AATGGTGT	0.0703
TATGCCGA	0.0576
TGATCGAA	0.0734
GTCGGCGA	-0.23
CAGCTCAG	0.0758
ATTCGAAG	0.0877
TAGAGCAA	-0.0369
